Measured values as given in article doi:10.1101/2023.07.25.550481.
Results from cells or extracts need not show a direct contact. A negative result means that nothing was seen under these conditions. For part of these data: The exact form of at least one protein or probe is not confirmed. For part of these data: At least one verdict was read from the data and is not stated in words by the source. For part of these data: Weaker means in comparison with the reference protein, sequence or condition of that experiment.

Sequences of proteins named here, by UniProt entry; tags and fusion partners are left off.
UniProt P10074, whole entry R611A: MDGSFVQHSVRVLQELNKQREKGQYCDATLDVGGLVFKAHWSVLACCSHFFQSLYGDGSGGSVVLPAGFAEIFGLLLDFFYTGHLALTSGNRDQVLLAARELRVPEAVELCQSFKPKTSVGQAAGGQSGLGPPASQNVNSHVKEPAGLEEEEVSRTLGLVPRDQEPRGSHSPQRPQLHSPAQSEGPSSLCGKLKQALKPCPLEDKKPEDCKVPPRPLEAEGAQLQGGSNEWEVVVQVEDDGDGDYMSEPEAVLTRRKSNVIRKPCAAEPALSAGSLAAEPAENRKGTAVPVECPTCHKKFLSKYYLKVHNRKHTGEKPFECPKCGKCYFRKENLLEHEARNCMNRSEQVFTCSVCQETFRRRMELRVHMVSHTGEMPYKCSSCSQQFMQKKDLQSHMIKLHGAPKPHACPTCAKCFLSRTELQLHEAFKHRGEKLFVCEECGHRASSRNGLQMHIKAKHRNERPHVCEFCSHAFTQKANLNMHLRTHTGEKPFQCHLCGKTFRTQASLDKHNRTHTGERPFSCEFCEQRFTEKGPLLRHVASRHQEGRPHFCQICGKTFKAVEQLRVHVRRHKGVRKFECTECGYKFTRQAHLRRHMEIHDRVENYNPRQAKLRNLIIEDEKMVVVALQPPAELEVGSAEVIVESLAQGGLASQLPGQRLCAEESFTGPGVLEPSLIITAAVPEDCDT
UniProt P10074, whole entry R611A/R614A: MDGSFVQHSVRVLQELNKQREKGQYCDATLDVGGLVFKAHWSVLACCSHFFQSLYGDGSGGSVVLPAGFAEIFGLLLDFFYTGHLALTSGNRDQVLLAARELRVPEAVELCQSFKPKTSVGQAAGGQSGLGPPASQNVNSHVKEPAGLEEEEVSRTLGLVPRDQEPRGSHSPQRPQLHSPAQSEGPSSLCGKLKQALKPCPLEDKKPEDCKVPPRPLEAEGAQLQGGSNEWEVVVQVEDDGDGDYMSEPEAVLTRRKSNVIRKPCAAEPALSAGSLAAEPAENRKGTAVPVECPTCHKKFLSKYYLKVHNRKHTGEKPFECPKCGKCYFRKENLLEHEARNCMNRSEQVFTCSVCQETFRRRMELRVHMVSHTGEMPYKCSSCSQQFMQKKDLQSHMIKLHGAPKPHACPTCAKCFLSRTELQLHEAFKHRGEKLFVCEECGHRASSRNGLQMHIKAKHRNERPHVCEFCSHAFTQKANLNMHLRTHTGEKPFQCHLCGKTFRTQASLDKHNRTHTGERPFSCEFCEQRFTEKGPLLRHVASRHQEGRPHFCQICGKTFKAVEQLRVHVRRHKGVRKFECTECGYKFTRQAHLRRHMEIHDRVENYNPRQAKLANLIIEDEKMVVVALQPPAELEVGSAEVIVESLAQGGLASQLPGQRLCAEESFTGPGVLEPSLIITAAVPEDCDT
UniProt P10074, whole entry H596A: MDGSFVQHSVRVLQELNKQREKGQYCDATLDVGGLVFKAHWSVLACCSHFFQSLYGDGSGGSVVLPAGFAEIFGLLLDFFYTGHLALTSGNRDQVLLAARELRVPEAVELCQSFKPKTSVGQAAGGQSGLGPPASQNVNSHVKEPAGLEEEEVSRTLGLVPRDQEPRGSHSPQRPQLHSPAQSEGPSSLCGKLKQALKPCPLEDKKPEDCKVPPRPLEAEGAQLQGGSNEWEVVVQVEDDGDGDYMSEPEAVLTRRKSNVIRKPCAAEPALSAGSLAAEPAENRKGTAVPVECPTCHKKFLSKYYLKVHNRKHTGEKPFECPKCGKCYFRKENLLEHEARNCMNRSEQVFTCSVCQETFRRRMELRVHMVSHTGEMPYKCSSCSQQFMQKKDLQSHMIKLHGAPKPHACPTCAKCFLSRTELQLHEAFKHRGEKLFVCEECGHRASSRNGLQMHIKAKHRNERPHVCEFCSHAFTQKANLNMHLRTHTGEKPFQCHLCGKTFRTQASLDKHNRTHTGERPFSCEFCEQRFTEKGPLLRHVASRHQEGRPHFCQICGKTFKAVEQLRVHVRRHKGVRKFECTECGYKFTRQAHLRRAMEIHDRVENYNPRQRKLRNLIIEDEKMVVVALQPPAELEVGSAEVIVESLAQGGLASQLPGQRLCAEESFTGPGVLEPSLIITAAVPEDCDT
UniProt P10074, whole entry H568A: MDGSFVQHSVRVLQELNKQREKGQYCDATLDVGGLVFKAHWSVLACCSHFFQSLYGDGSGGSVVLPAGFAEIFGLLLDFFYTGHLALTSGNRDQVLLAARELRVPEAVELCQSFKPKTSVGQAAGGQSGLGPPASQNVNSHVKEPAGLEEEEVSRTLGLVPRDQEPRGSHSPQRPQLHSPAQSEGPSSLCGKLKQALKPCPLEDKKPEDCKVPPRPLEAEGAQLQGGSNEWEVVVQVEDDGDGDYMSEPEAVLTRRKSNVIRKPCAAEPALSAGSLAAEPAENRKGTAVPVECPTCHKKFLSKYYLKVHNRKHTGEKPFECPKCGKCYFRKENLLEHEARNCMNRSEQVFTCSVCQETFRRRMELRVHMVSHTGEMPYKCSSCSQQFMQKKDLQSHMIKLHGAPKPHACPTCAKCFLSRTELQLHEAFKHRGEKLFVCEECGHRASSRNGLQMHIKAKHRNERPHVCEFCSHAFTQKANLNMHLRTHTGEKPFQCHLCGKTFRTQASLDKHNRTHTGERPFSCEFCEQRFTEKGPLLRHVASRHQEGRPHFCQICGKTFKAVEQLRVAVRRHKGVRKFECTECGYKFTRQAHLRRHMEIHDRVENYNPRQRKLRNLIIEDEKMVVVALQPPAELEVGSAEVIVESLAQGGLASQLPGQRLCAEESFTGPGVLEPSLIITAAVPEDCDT
UniProt P10074, whole entry R614A: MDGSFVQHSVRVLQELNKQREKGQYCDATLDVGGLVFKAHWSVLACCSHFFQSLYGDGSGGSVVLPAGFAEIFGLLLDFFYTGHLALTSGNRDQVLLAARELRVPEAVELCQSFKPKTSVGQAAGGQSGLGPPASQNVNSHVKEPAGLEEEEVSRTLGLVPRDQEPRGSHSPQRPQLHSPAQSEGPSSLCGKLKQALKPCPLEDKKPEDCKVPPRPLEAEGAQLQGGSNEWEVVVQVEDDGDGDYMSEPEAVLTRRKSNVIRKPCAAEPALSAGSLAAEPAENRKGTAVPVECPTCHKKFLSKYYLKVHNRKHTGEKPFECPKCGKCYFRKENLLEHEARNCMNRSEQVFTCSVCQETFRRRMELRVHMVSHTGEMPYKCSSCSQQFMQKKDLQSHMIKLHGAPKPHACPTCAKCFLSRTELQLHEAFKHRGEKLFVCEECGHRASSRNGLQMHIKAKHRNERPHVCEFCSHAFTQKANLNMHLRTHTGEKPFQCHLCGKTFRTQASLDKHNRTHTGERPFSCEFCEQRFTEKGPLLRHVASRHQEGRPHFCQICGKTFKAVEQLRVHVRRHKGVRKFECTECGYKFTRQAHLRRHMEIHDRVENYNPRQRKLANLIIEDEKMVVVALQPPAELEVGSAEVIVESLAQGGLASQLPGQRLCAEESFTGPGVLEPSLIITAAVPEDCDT

Tests used:
Assay in all cases: pull-down
ZBTB48 (endogenous) = ZBTB48 (endogenous) (UniProt P10074); settings: desthiobiotin-dATP; protein in an extract
FLAG-ZBTB48 R611A = FLAG-ZBTB48 R611A (UniProt P10074); settings: desthiobiotin-dATP; protein in a lysate after overexpression
FLAG-ZBTB48 WT = FLAG-ZBTB48 WT (UniProt P10074); settings: desthiobiotin-dATP; protein in a lysate after overexpression
FLAG-ZBTB48 R611A/R614A = FLAG-ZBTB48 R611A/R614A (UniProt P10074); settings: desthiobiotin-dATP; protein in a lysate after overexpression
[1] = biological target: FLAG-ZBTB48 ZnF11 mut H596A (UniProt P10074); settings: desthiobiotin-dATP; protein in a lysate after overexpression
[2] = biological target: FLAG-ZBTB48 ZnF10 mut H568A (UniProt P10074); settings: desthiobiotin-dATP; protein in a lysate after overexpression
FLAG-ZBTB48 R614A = FLAG-ZBTB48 R614A (UniProt P10074); settings: desthiobiotin-dATP; protein in a lysate after overexpression

Row | Sequence | binding result (ZBTB48 (endogenous)) | also measured
1 | CTGGGCATCCGAAGGCATCCTTGGGGAAGCTGAGGGCACGAGGAGGGGCTGCCAGACTCC / AGGGAGTCTGGCAGCCCCTCCTCGTGCCCTCAGCTTCCCCAAGGATGCCTTCGGATGCCC [CIITA pIII probe 7] | no binding | –
2 | GTTTTTTTGATGATCGTTTTTTTGATGATCGTTTTTTTGATGATCGTTTTTTTGATGATC / ACGATCATCAAAAAAACGATCATCAAAAAAACGATCATCAAAAAAACGATCATCAAAAAA [CIITA probe e.1 (text) = f.1 in Table S6] | no binding | –
3 | CTTAAGGGAGTGTGGTAAAATTAGAGGGTGTTCAGAAACAGAAATCTGACCGCTTGGGGC / AGGCCCCAAGCGGTCAGATTTCTGTTTCTGAACACCCTCTAATTTTACCACACTCCCTTA [CIITA pIII probe 3] | binds | –
4 | TTAGAGGGTGTTCAGAAACAGAAATCTGACCGCTTGGG / AACCCAAGCGGTCAGATTTCTGTTTCTGAACACCCTCT [CIITA probe c] | no binding | –
5 | TTAATTTCAGAGGTGTGGGGAGGGCTTAAGGTTAATTTCAGAGGTGTGGGGAGGGCTTAAGG / AACCTTAAGCCCTCCCCACACCTCTGAAATTAACCTTAAGCCCTCCCCACACCTCTGAAATT [CIITA probe a] | no binding | –
6 | CTCACTTGTTTCTTTGCATGTTGGCTTAGCTTGGCGGGCTCCCAACTGGTGACTGGTTAG / AGCTAACCAGTCACCAGTTGGGAGCCCGCCAAGCTAAGCCAACATGCAAAGAAACAAGTG [CIITA pIII probe 5] | no binding | –
7 | TTGATGATCCCTCACTTGATGATCCCTCACTTGATGATCCCTCACTTGATGATCCCTCAC / AAGTGAGGGATCATCAAGTGAGGGATCATCAAGTGAGGGATCATCAAGTGAGGGATCATC [CIITA probe e.2 (text) = f.2 in Table S6] | binds | binding result (FLAG-ZBTB48 R611A): binds more weakly; binding result (FLAG-ZBTB48 WT): binds; binding result (FLAG-ZBTB48 R611A/R614A): no binding; binding result [1]: no binding; binding result [2]: no binding
8 | GTGACTGGTTAGTGATGAGGCTAGTGATGAGGCTGTGTGCTTCTGAGCTGGGCATCCGAA / ACTTCGGATGCCCAGCTCAGAAGCACACAGCCTCATCACTAGCCTCATCACTAACCAGTC [CIITA pIII probe 6] | no binding | –
9 | GTCCACAGTAAGGAAGTGAAATTAATTTCAGAGGTGTGGGGAGGGCTTAAGGGAGTGTGG / ACCCACACTCCCTTAAGCCCTCCCCACACCTCTGAAATTAATTTCACTTCCTTACTGTGG [CIITA pIII probe 2] | binds | –
10 | CTGCCAGACTCCGGGAGCTGCTGCCTGGCTGGGATTCCTACACAATGCGTTGCCTGGCTC / AGGAGCCAGGCAACGCATTGTGTAGGAATCCCAGCCAGGCAGCAGCTCCCGGAGTCTGGC [CIITA pIII probe 8] | no binding | –
11 | TTAGGGTTAGGGTTAGGGTTAGGGTTAGGGTTAGGGTTAGGGTTAGGGTTAGGGTTAGGG / AACCCTAACCCTAACCCTAACCCTAACCCTAACCCTAACCCTAACCCTAACCCTAACCCT [telomeric TTAGGG] | binds | binding result (FLAG-ZBTB48 R614A): binds more weakly; binding result (FLAG-ZBTB48 WT): binds; binding result (FLAG-ZBTB48 R611A/R614A): no binding; binding result [1]: no binding; binding result [2]: binds
12 | CTTAAGGGAGTGTGGCTTAAGGGAGTGTGGCTTAAGGGAGTGTGGCTTAAGGGAGTGTGG / AGCCACACTCCCTTAAGCCACACTCCCTTAAGCCACACTCCCTTAAGCCACACTCCCTTA [CIITA probe b.1] | binds | binding result (FLAG-ZBTB48 R614A): no binding; binding result (FLAG-ZBTB48 R611A): no binding; binding result (FLAG-ZBTB48 WT): binds; binding result (FLAG-ZBTB48 R611A/R614A): no binding; binding result [1]: no binding; binding result [2]: binds more weakly
13 | TTCCCCCAACAGACTTTCTGTGCAACTTTCTGTCTTCACCAAATTCAGTCCACAGTAAGG / AACCTTACTGTGGACTGAATTTGGTGAAGACAGAAAGTTGCACAGAAAGTCTGTTGGGGG [CIITA pIII probe 1] | no binding | –
14 | GTTTTTTTGATGATCCCTCACTTGTTTCTTGTTTTTTTGATGATCCCTCACTTGTTTCTT / ACAAGAAACAAGTGAGGGATCATCAAAAAAACAAGAAACAAGTGAGGGATCATCAAAAAA [CIITA probe e (text) = probe f in Table S6] | binds | –
15 | CTTGGGGCCACCTTGCAGGGAGAGTTTTTTCTTGGGGCCACCTTGCAGGGAGAGTTTTTT / AGAAAAAACTCTCCCTGCAAGGTGGCCCCAAGAAAAAACTCTCCCTGCAAGGTGGCCCCA [CIITA probe d (text) = probe e in Table S6] | no binding | –
16 | TTGTTTCTTTGCATGTTGGCTTAGCTTGGCTTGTTTCTTTGCATGTTGGCTTAGCTTGGC / AAGCCAAGCTAAGCCAACATGCAAAGAAACAAGCCAAGCTAAGCCAACATGCAAAGAAAC [CIITA probe f (text) = probe g in Table S6] | no binding | –
17 | GTGTGGTAAAATTAGGTGTGGTAAAATTAGGTGTGGTAAAATTAGGTGTGGTAAAATTAG / ACCTAATTTTACCACACCTAATTTTACCACACCTAATTTTACCACACCTAATTTTACCAC [CIITA probe b.2] | no binding | –
18 | GTAAAATTAGAGGGTGGTAAAATTAGAGGGTGGTAAAATTAGAGGGTG / ACCACCCTCTAATTTTACCACCCTCTAATTTTACCACCCTCTAATTTT [CIITA probe b.3] | no binding | –
19 | CTTAAGGGAGTGTGGTAAAATTAGAGGGTGCTTAAGGGAGTGTGGTAAAATTAGAGGGTG / AGCACCCTCTAATTTTACCACACTCCCTTAAGCACCCTCTAATTTTACCACACTCCCTTA [CIITA probe b] | binds | –
20 | GTGAGTGTGAGTGTGAGTGTGAGTGTGAGTGTGAGTGTGAGTGTGAGTGTGAGTGTGAGT / ACACTCACACTCACACTCACACTCACACTCACACTCACACTCACACTCACACTCACACTC [GTGAGT scramble control] | no binding | binding result (FLAG-ZBTB48 WT): no binding
21 | CTGACCGCTTGGGGCCACCTTGCAGGGAGAGTTTTTTTGATGATCCCTCACTTGTTTCTT / AGAAGAAACAAGTGAGGGATCATCAAAAAAACTCTCCCTGCAAGGTGGCCCCAAGCGGTC [CIITA pIII probe 4] | binds | –
22 | ATCCCTCACTTGTTTCTTATCCCTCACTTGTTTCTTATCCCTCACTTGTTTCTT / ATAAGAAACAAGTGAGGGATAAGAAACAAGTGAGGGATAAGAAACAAGTGAGGG [CIITA probe e.3 (text) = f.3 in Table S6] | no binding | –
